Assay results from publication PMC8286840, “Identifying SARS-CoV-2 antiviral compounds by screening for small molecule inhibitors of Nsp3 papain-like protease” (Biochemical Journal, 2021).
Counter-ions that a name gives are not always drawn. Like-named read-outs stand apart in the source and are kept apart here.

Key:
[1] = target: T1, SARS-CoV-2 PLpro (nsp3 1564–1878) (Severe acute respiratory syndrome coronavirus 2, UniProt P0DTD1); test: biochemical; design: FRET-quenched peptide (Pro3) cleavage by PLpro, 10 min pre-incubation, slope over 20 min, normalised to no-compound control; details: read-out: % of control remaining
[2] = target: T1, SARS-CoV-2 PLpro (nsp3 1564–1878); test: biochemical; design: FRET-quenched peptide (Pro3) cleavage by PLpro, 10 min pre-incubation, slope over 20 min, normalised to no-compound control; details: read-out: % of control remaining; remark: listed apart in the source

Q: Which results are given for `CC(C)CC(=O)O` [3-Methylbutanoic acid]?
A: remaining activity at 1.25 µM ([1]; Well no.=6309, low concentration screen): 98.5%; remaining activity at 3.75 µM ([2]; Well no.=6309, high concentration screen): 95.1%

Q: `CC(=O)[C@H]1CC[C@H]2[C@@H]3CC[C@H]4C[C@H](O)CC[C@]4(C)[C@H]3C(=O)C[C@]12C` [5alpha-Pregnan-3alpha-ol-11,20-dione] was tested. Which remaining activity at 1.25 µM [1] did it give?
A: 102%

Q: What about the remaining activity at 3.75 µM [2] of the same compound?
A: 99.4%

Q: How did the remaining activity at 1.25 µM ([1]; Well no.=5344, low concentration screen) turn out when `O=C(c1ccc(F)cc1)N1CCC[C@H](c2nc(-c3ccc(F)cc3)no2)C1` [ADX-47273] was run?
A: 95.8%

Q: What about the remaining activity at 1.25 µM ([1]; Well no.=7949, low concentration screen) of the same compound?
A: 98.5%

Q: What about the remaining activity at 3.75 µM ([2]; Well no.=5344, high concentration screen) of the same compound?
A: 95.8%

Q: And the remaining activity at 3.75 µM ([2]; Well no.=7949, high concentration screen)?
A: 94.7%

Q: For `CCC[C@@H]1C[C@@H](C(=O)N[C@@H]([C@H]2O[C@H](SC)[C@H](O)[C@@H](O)[C@H]2O)[C@H](C)Cl)N(C)C1` [Clindamycin.HCl], which remaining activity at 1.25 µM ([1]; Well no.=1541, low concentration screen) is on record?
A: 107%

Q: What about the remaining activity at 3.75 µM ([2]; Well no.=1541, high concentration screen) of the same compound?
A: 108%

Q: With `COc1cc2c(cc1OC)C(=O)C(CC1CCN(Cc3ccccc3)CC1)C2` (stereo not drawn) [Donepezil.HCl] as the compound, how does the remaining activity at 1.25 µM ([1]; Well no.=1547, low concentration screen) read?
A: 94.1%

Q: And the remaining activity at 3.75 µM ([2]; Well no.=1547, high concentration screen)?
A: 94.1%

Q: What does the source list for `CCNC(=O)C[C@@H]1N=C(c2ccc(Cl)cc2)c2cc(OC)ccc2-n2c(C)nnc21` [I-BET762]?
A: remaining activity at 1.25 µM ([1]; Well no.=5959, low concentration screen): 102%; remaining activity at 3.75 µM ([2]; Well no.=5959, high concentration screen): 101%

Q: How did the remaining activity at 1.25 µM ([1]; Well no.=7689, low concentration screen) turn out when `NCCC[C@H](N)C(=O)O` [L-Ornithine (hydrochloride)] was run?
A: 108%

Q: And the remaining activity at 3.75 µM ([2]; Well no.=7689, high concentration screen)?
A: 109%

Q: With `COC(=O)C1=C(C)NC(C)=C(C(=O)OC)C1c1ccccc1[N+](=O)[O-]` [Nifedipine] as the compound, how does the remaining activity at 1.25 µM ([1]; Well no.=859, low concentration screen) read?
A: 102%

Q: What about the remaining activity at 1.25 µM ([1]; Well no.=1715, low concentration screen) of the same compound?
A: 98.9%

Q: What about the remaining activity at 3.75 µM ([2]; Well no.=859, high concentration screen) of the same compound?
A: 103%

Q: What about the remaining activity at 3.75 µM ([2]; Well no.=1715, high concentration screen) of the same compound?
A: 97.4%

Q: Which remaining activity at 1.25 µM ([1]; Well no.=4626, low concentration screen) does the source give for `CCn1cc(C(=O)O)c(=O)c2cc(F)c(N3CCN(C)CC3)cc21` [Pefloxacin mesylate] here?
A: 96.4%

Q: What about the remaining activity at 3.75 µM ([2]; Well no.=4626, high concentration screen) of the same compound?
A: 95.2%

Q: For `CCn1cc(C(=O)O)c(=O)c2cc(F)c(N3CCN(C)CC3)cc21` [Pefloxacine mesylate dihydrate], which remaining activity at 1.25 µM ([1]; Well no.=2097, low concentration screen) is on record?
A: 102%

Q: What about the remaining activity at 3.75 µM ([2]; Well no.=2097, high concentration screen) of the same compound?
A: 102%

Q: Which results are given for `Nc1nc2ccc(OC(F)(F)F)cc2s1` [Riluzole]?
A: remaining activity at 1.25 µM ([1]; Well no.=1258, low concentration screen): 105%; remaining activity at 3.75 µM ([2]; Well no.=1258, high concentration screen): 107%

Q: Which remaining activity at 1.25 µM [1] does the source give for `CN1c2ccccc2C(NCCCCCCC(=O)O)c2ccc(Cl)cc2S1(=O)=O` (stereo not drawn) [Tianeptine sodium] here?
A: 96.1%

Q: What about the remaining activity at 3.75 µM [2] of the same compound?
A: 93.4%

Q: With `C#C[C@]1(O)CC[C@H]2[C@@H]3CC[C@H]4Cc5nc6nc7ccccc7n6cc5C[C@]4(C)[C@H]3CC[C@@]21C` [WIN 51708 hydrate] as the compound, how does the remaining activity at 1.25 µM ([1]; Well no.=5608, low concentration screen) read?
A: 98.7%

Q: And the remaining activity at 3.75 µM ([2]; Well no.=5608, high concentration screen)?
A: 101%
